The values that follow are results of earlier work, collected in patent US12576069B2, “Compositions and methods for treating slow-flow vascular malformations” (YALE UNIVERSITY, priority 2019, dated 2026).

For this data set the following is noted: cited from earlier work.

SMILES strings stand for the structures.

Consider `CO[C@H]1C[C@@H]2CC[C@@H](C)[C@@](O)(O2)C(=O)C(=O)N2CCCC[C@H]2C(=O)O[C@H]([C@H](C)C[C@@H]2CC[C@@H](O)[C@H](OC)C2)CC(=O)[C@H](C)/C=C(\C)[C@@H](O)[C@@H](OC)C(=O)[C@H](C)C[C@H](C)/C=C/C=C/C=C/1C` [rapamycin], for which the solubility in water entry is given as “insoluble in water”.
